Reference: PubChem BioAssay AID504834 (National Center for Advancing Translational Sciences (NCATS), 2011)
Where “and” joins values, the source holds several entries; their conditions need not be identical. Equal values may be shown once. The whole screen tested about 320,000 compounds, of which about 22,000 (6.9%) were called active. Inconclusive means that the source gave no clear call. Such entries were picked first, then a sample of the others. The call rests on the fitted dose curve; in most records, active means well fitted inhibition curve with a large enough effect; inconclusive means small, poorly fitted or top-dose-only effect, or another doubt; inactive means no such curve, though single readings can be large or run the other way. Potencies beside an inconclusive call are fits to weak or partial responses and may not hold up.

Assay: Primary qHTS for delayed death inhibitors of the malarial parasite plastid, 96 hour incubation
Conditions: P. falciparum luciferase reporter growth; series mostly up to 28.7 µM; activity change, negative = inhibition: at the top concentration
Outline: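 Plates of compound plus infected erythrocytes (2% hematocrit, 0.05% parasitemia final) incubate 96 hours, 37 C, 5% CO2. Detection reagent added; reduced luminescence from the parasites' luciferase reporter flags inhibition.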
On the % scale 0 is the no-effect control and ±100 the full control effect; potency means the concentration at half of the fitted maximal effect.

SMILES	activity change, negative = inhibition	Potency
O=C(COC(=O)c1cc(Cl)ccc1O)c1ccc2c(c1)OCO2	inactive: 4.92%	
Cc1c(Cl)c(C(F)F)nn1CC(=O)NC1C(=O)N2C(C(=O)O)=C(CSc3nnnn3C)CSC12 (configuration not stated)	inactive: 117%	
CCOC(=O)c1ccccc1NC(=O)Cc1ccccc1OC		inconclusive: 5.22 µM [inhibitor, partial curve, poor fit]
Cc1nc2nc(-c3cccs3)cn2nc1C	inactive: 169%	
Cc1nc(SCC(=O)N(CC(C)C)C2CCS(=O)(=O)C2)c2ccccc2n1 (configuration not stated)		inconclusive: 18.5 µM [inhibitor, single point]
O=C(O)[C@@H]1Cc2ccccc2N1		inconclusive: 20.8 µM [inhibitor, single point]
CNC(=S)NNC(=O)c1cccn(Cc2cccc(C(F)(F)F)c2)c1=O	inactive: -3.95%	
CC(/C=C/C=C(\C)C(=O)O[C@@H]1O[C@H](CO[C@@H]2O[C@H](CO)[C@@H](O)[C@H](O)[C@H]2O)[C@@H](O)[C@H](O)[C@H]1O)=C\C=C\C=C(C)\C=C\C=C(/C)C(=O)O[C@@H]1O[C@H](CO[C@@H]2O[C@H](CO)[C@@H](O)[C@H](O)[C@H]2O)[C@@H](O)[C@H](O)[C@H]1O	inactive: 11.4%	
COc1ccc(Cn2c(=S)[nH]c3ccsc3c2=O)cc1		inconclusive: 2.94 µM [inhibitor, partial curve]
COc1ccccc1CNC(=O)C1CCN(S(=O)(=O)c2cccc3nonc23)CC1	inactive: 3.32%	
CSc1nc(-c2ccccc2)[nH]c(=S)c1C(C)=O		active: 9.28 µM
O=C(Nc1ccccc1N1CCCC1)c1cc(S(=O)(=O)N2CCOCC2)ccc1Cl		inconclusive: 18.5 µM [inhibitor, single point]
Cc1nc(SCCO)c2oc3ccccc3c2n1		inconclusive: 18.5 µM [inhibitor, single point]
CC(=O)N(Cc1cccs1)Cc1cc2cc(C)c(C)cc2nc1Cl		inconclusive: 18.5 µM [inhibitor, single point]
O=C(CN1CCN(c2ccc([N+](=O)[O-])cc2)CC1)Nc1ccccn1	inactive: -21.1%	
Cn1c(=O)c(=O)n(C)c2cc(S(=O)(=O)CCC(=O)Nc3c(F)c(F)c(F)c(F)c3F)ccc21		inconclusive: 18.5 µM [inhibitor, single point]
COc1cccc(Nc2nc(N)nc(C(F)(F)F)n2)c1	inactive: 55.3%	
CCCCN(C)CCN1C(=O)C2C(C(=O)Nc3ccc(C)cc3)C3C=CC2(O3)C1C(=O)NC1CCCCC1 (configuration not stated)		inconclusive: 14.7 µM [inhibitor, partial curve, poor fit]
CCOC(=O)NC(O)C(=O)c1cccs1 (configuration not stated)		active: 5.22 µM
CC1CCCCN1C(=O)CCNC(=O)Cn1cnc2ccccc2c1=O (configuration not stated)		inconclusive: 13.1 µM [inhibitor, partial curve]
COc1ccccc1N1CCN(C(=O)c2onc(C)c2Cl)CC1		inconclusive: 10.4 µM [inhibitor, single point]
Cc1cccc(S(=O)(=O)Nc2ccc(-c3ccc4nncn4n3)cc2)c1	inactive: 5.37%	
COc1cccc(CNC(=O)c2ccc(CS(=O)Cc3ccc(C)cc3)o2)c1 (configuration not stated)		inconclusive: 18.5 µM [inhibitor, single point]

SMILES	activity change, negative = inhibition	Potency
CCCCc1cc(=O)oc2cc(C)cc(OCC(=O)NCc3ccccn3)c12		active: 2.62 µM
COc1ccccc1CN1CCNC(=O)C1CC(=O)NCCC1=CCCCC1 (configuration not stated)		inconclusive: 10.4 µM [inhibitor, partial curve]
O=C(NNc1nc(-c2ccccc2)cs1)c1cccs1		inconclusive: 18.5 µM [inhibitor, single point]
CCO[C@@H]1OC(C(=O)NC2CC2)=C[C@H](c2c[nH]c3ccccc23)[C@H]1CCCO		inconclusive: 13.1 µM [inhibitor, single point]
O=C1N(Cc2cccnc2)C[C@@H]2C[C@@H](c3ccc(-c4ccccc4)cc3)N3CCC[C@@]123		inconclusive: 4.65 µM [inhibitor, partial curve, poor fit]
C=CCc1cccc2cc(C(=O)NCCOC)c(=O)oc12		inconclusive: 10.4 µM [inhibitor, single point]
C=CCn1c2c(c(=O)[nH]c1=S)CN(C(C)c1ccccc1)CN2 (configuration not stated)		inconclusive: 18.5 µM [inhibitor, single point]
Cc1cnc(NC(=O)CCNC(=O)c2ccc([N+](=O)[O-])cc2)s1	inactive: -37.3% [at 5.75 µM]	
O=C(Nc1ccccc1N1CCOCC1)C1CCN(S(=O)(=O)c2ccccc2F)CC1		inconclusive: 2.94 µM [inhibitor, full curve]
Cc1ccc(C(=O)C2(C)C3c4cc(Br)ccc4OC(=O)C32C(=O)c2ccco2)cc1 (configuration not stated)		inconclusive: 11.7 µM [inhibitor, single point]
CN(c1ccccc1)S(=O)(=O)c1cccc(C(=O)N2CCCCCC2)c1		inconclusive: 5.86 µM [inhibitor, partial curve]
COc1cc(-c2noc(C)c2C#CC2(N)CCCCC2)cc(OC)c1OC		active: 1.85 µM
CCCc1c(C(=O)Nc2cc(C)on2)cnn1-c1ccccc1		active: 9.28 µM
Cc1ccc(C(=O)N/C(=C\c2ccc(-c3cccc([N+](=O)[O-])c3)o2)C(=O)NC(C)(C)C)cc1		inconclusive: 11.7 µM [inhibitor, single point]
CC(C)OC(=O)C1C2C=CC3(CN(Cc4cccs4)C(=O)C13)O2 (configuration not stated)		inconclusive: 4.15 µM [inhibitor, single point]
C=CCNC(=O)/C(C#N)=C/c1ccccc1OCc1ccc(C(=O)OC)cc1	inactive: -5.55%	
CCOC(=O)c1ccc2[nH]c(-c3ccc(S(=O)(=O)F)cc3)cc(=O)c2c1		inconclusive: 1.04 µM [inhibitor, full curve, poor fit]
CCCc1nnc(SCC(=O)N2CCCC(C)C2)n1CCCOC (configuration not stated)		inconclusive: 10.4 µM [inhibitor, single point]
CSc1nc(N)n2nc(-c3ccc(Cl)cc3)cc2n1	inactive: 261%	
Cc1c(C(=O)NC(C)c2ccc(-n3ccnc3)cc2)cccc1[N+](=O)[O-] (configuration not stated)		inconclusive: 18.5 µM [inhibitor, single point]
COc1ccc(Br)cc1CN(C)C(=O)Cc1ccc(S(=O)(=O)N2CCOCC2)s1		inconclusive: 7.38 µM [inhibitor, partial curve, poor fit]
COCCNc1cnn(-c2ccccc2)c(=O)c1Cl		inconclusive: 13.1 µM [inhibitor, partial curve, poor fit]
CCS(=O)(=O)c1ccc(O)c(NC(=O)/C=C/c2ccc(Cl)cc2)c1		inconclusive: 18.5 µM [inhibitor, single point]

A second format for three compounds above:
CCO[C@@H]1OC(C(=O)NC2CC2)=C[C@H](c2c[nH]c3ccccc23)[C@H]1CCCO
  Potency: inconclusive: 13.1 µM [inhibitor, single point]
O=C1N(Cc2cccnc2)C[C@@H]2C[C@@H](c3ccc(-c4ccccc4)cc3)N3CCC[C@@]123
  Potency: inconclusive: 4.65 µM [inhibitor, partial curve, poor fit]
Cc1ccc(C(=O)N/C(=C\c2ccc(-c3cccc([N+](=O)[O-])c3)o2)C(=O)NC(C)(C)C)cc1
  Potency: inconclusive: 11.7 µM [inhibitor, single point]

Next entries

SMILES	activity change, negative = inhibition	Potency
COc1ccc(NC2CCCN(C(=O)c3cn(C)c4ccccc34)C2)cc1 (configuration not stated)	inactive: 0%	
Cc1ccccc1-c1nc(CS(=O)(=O)CC(=O)NCCN2CCCC2)c(C)o1		inconclusive: 13.1 µM [inhibitor, partial curve, poor fit]
CCOc1ccc(OCC)c(NC(=O)C2CCCN(S(=O)(=O)c3c(C)noc3C)C2)c1 (configuration not stated)		inconclusive: 10.4 µM [inhibitor, partial curve, poor fit]
CC(=O)OC1CSc2nc3ccccc3n2C1 (configuration not stated)		inconclusive: 18.5 µM [inhibitor, single point]
COc1cc(O)c(C(=O)/C=C/c2ccccc2)c(OC)c1		inconclusive: 18.5 µM [inhibitor, single point]
Cc1ccc(C2NC(=O)CCC2[N+](=O)[O-])cc1 (configuration not stated)		inconclusive: 9.28 µM [inhibitor, single point]
CSc1nc2ccc(NS(=O)(=O)c3ccc4c(c3)OCCO4)cc2s1	inactive: 83.4%	
Cc1cc(C(F)F)n2ncc(C(=O)N3CCC(C(N)=O)CC3)c2n1		inconclusive: 18.5 µM [inhibitor, single point]
Cc1ccc(S(=O)(=O)N2CCN(C(=O)c3ccccc3)CC2)c(C)c1NS(C)(=O)=O		inconclusive: 11.7 µM [inhibitor, single point]
COc1ccc(NC2CCCN(C(=O)CCn3cccn3)C2)cc1 (configuration not stated)		inconclusive: 18.5 µM [inhibitor, single point]
CCc1ccc(NC(=O)CS(=O)CC(=O)N2CCN(c3ccccc3F)CC2)cc1 (configuration not stated)	inactive: 10.1%	
CCOCCCNCc1ccc(OCCC(C)C)c(OC)c1	inactive: 36.9%	
CCOc1ncccc1C(=O)NCCc1c[nH]c2ccccc12	inactive: -11.2%	
CC(=O)Nc1ccc(C(=O)CN2C(=O)NC3(CCOc4ccccc43)C2=O)c(F)c1 (configuration not stated)		inconclusive: 18.5 µM [inhibitor, single point]
Cc1ccc(S(=O)(=O)N2CCN(CC(=O)NC(=O)NCc3ccccc3)CC2)cc1C		inconclusive: 6.57 µM [inhibitor, partial curve]
COc1cccc(C(=O)Nc2ccc(N3CCN(C(=O)c4ccco4)CC3)cc2)c1	inactive: 15.5%	
CC(C)c1ccc(/C=C2\SC(=S)N(CCC(=O)N3CCCCC3CCO)C2=O)cc1 (configuration not stated)		active: 9.28 µM
CCCc1nn(C)c2c(=O)[nH]c(-c3cc(S(=O)(=O)N4CCN(C)CC4)ccc3OCC)nc12		inactive and inconclusive: 15.1 µM [inhibitor, single point]
Cc1cccn2c(=O)c3cc(C(=O)NC4CCCCCC4)sc3nc12		inconclusive: 2.08 µM [inhibitor, full curve, poor fit]
COc1ccc(-c2ccc(SCC(=O)N3CC(=O)Nc4ccccc43)nn2)cc1	inactive: -15.1%	
CC1CCCN(c2sc(S(C)(=O)=O)nc2S(=O)(=O)c2ccc(Cl)cc2)C1 (configuration not stated)		active: 13.1 µM
